PubChem BioAssay AID652272 – Drosophila RNAi Screening Center, 2013
The deposit covers about 21,000 reagents; shown is an unselected part of those with a known target gene and a result. In the full data, 503 (2.4%) are marked active. 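Raw plate light values, not normalised; calls rest on replicate z-scores that were not deposited; hits include reporter decreases as well as increases.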 Reagents against one gene are numbered here. The record does not give: the amount of reagent, the time to read-out.

Screen: 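Genes whose knock-down decreases or increases Hedgehog reporter output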 (primary screen)
Cell system: Drosophila clone 8 (Cl8) cells
Reagent: long dsRNA against Drosophila genes
Read-out: 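Firefly light from a Hedgehog-responsive ptc promoter reporter and Renilla reference light, both read on a plate reader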
Scale: firefly Hh reporter signal: higher = more ptc reporter light; Renilla reference signal: higher = more Renilla control light
Call rule: 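Called a hit if the two-replicate mean z-score lies below -2 or above +3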
Meaning of the calls: active = hit: reporter lowered or raised; inactive = not a hit

CG8861 #1
- firefly Hh reporter signal, replicate 1: 3.48e5
- Renilla reference signal, replicate 1: 6901
- outcome: inactive

CG8861 #2
- firefly Hh reporter signal, replicate 1: 89792
- firefly Hh reporter signal, replicate 2: 1.29e5
- Renilla reference signal, replicate 1: 2582
- Renilla reference signal, replicate 2: 3357
- outcome: inactive

C1GalTA (Core 1 Galactosyltransferase A)
- firefly Hh reporter signal, replicate 1: 71489
- firefly Hh reporter signal, replicate 2: 72925
- Renilla reference signal, replicate 1: 3320
- Renilla reference signal, replicate 2: 3384
- outcome: inactive

CG18536
- firefly Hh reporter signal, replicate 1: 97664
- firefly Hh reporter signal, replicate 2: 63552
- Renilla reference signal, replicate 1: 2755
- Renilla reference signal, replicate 2: 4356
- outcome: inactive

CG43234 (retired record)
- firefly Hh reporter signal, replicate 1: 1.22e5
- firefly Hh reporter signal, replicate 2: 2.23e5
- Renilla reference signal, replicate 1: 3649
- Renilla reference signal, replicate 2: 9237
- outcome: inactive

CycD (Cyclin D)
- firefly Hh reporter signal, replicate 1: 66132
- firefly Hh reporter signal, replicate 2: 1.73e5
- Renilla reference signal, replicate 1: 1946
- Renilla reference signal, replicate 2: 7884
- outcome: inactive

Cep135 (Centrosomal protein 135kDa) #1
- firefly Hh reporter signal, replicate 1: 2.42e5
- Renilla reference signal, replicate 1: 5650
- outcome: inactive

Cep135 (Centrosomal protein 135kDa) #2
- firefly Hh reporter signal, replicate 1: 1.34e5
- firefly Hh reporter signal, replicate 2: 69200
- Renilla reference signal, replicate 1: 4873
- Renilla reference signal, replicate 2: 2961
- outcome: inactive

Gbeta13F (G protein beta subunit 13F)
- firefly Hh reporter signal, replicate 1: 92518
- firefly Hh reporter signal, replicate 2: 61901
- Renilla reference signal, replicate 1: 2185
- Renilla reference signal, replicate 2: 1537
- outcome: inactive

Hil (Hillarin) #1
- firefly Hh reporter signal, replicate 1: 1.55e5
- firefly Hh reporter signal, replicate 2: 1.12e5
- Renilla reference signal, replicate 1: 6896
- Renilla reference signal, replicate 2: 5008
- outcome: inactive

Hil (Hillarin) #2
- firefly Hh reporter signal, replicate 1: 1.07e5
- firefly Hh reporter signal, replicate 2: 55532
- Renilla reference signal, replicate 1: 3552
- Renilla reference signal, replicate 2: 4169
- outcome: inactive

Dop1R2 (Dopamine 1-like receptor 2) #1
- firefly Hh reporter signal, replicate 1: 46678
- firefly Hh reporter signal, replicate 2: 2.63e5
- Renilla reference signal, replicate 1: 11235
- Renilla reference signal, replicate 2: 6597
- outcome: inactive

Dop1R2 (Dopamine 1-like receptor 2) #2
- firefly Hh reporter signal, replicate 1: 92652
- firefly Hh reporter signal, replicate 2: 77584
- Renilla reference signal, replicate 1: 3114
- Renilla reference signal, replicate 2: 2342
- outcome: inactive

Individual results from above:
Result for CG8861 #2 under “Renilla reference signal, replicate 1”: 2582
Gbeta13F (G protein beta subunit 13F), firefly Hh reporter signal, replicate 1 = 92518
